Laboratory results from publication doi:10.1101/2025.09.29.679208.
No constants are given. Whether binding was seen depends on the method and setting. In cells and extracts the contact can be indirect. These calls come from enrichment with a bait or labelling near it, and not all partners need be listed.

The chains behind the UniProt entries cited, without tags or fusion partners. Where a name states a change or a piece, a line headed by the entry shows the natural chain unless it says otherwise.
UniProt Q8N6T7: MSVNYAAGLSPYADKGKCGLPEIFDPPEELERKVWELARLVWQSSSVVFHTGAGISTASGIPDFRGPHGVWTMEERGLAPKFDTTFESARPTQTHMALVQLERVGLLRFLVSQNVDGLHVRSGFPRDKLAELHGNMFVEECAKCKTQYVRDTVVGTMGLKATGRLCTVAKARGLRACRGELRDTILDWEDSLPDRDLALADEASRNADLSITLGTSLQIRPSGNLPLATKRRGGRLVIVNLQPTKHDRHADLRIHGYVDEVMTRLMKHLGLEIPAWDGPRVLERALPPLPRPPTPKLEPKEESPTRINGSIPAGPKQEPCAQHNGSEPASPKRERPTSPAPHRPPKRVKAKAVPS
UniProt P08670: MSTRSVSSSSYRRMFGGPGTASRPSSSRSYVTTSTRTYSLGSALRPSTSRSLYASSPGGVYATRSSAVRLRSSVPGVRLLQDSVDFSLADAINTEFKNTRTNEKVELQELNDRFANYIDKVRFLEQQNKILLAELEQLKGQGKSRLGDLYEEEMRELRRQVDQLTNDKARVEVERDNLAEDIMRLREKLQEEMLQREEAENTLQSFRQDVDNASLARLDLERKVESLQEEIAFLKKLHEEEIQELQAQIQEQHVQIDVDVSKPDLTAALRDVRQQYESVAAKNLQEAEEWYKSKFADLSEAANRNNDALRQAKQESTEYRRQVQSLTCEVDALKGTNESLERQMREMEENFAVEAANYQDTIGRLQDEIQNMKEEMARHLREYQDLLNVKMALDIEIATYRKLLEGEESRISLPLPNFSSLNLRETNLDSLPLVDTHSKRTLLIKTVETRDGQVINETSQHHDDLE

Target: centenarian SIRT6 protein (CentSIRT6; N308K and A313S) (human (endogenous in hMSCs)) (UniProt Q8N6T7)
Assay: affinity purification with mass spectrometry

binding: binds
Substance: vimentin (VIM) (from UniProt P08670 1-466)
